From US9878984B2, “Anti-cancer compounds” (NORTHWESTERN UNIVERSITY, priority 2008, dated 2018)

System: HeLa cells
Experiment: Subcellular compound localization by epifluorescence microscopy
Type: cell-based, human
Conditions: HeLa cells treated with [GI99%] for 20 hr

SMILES	subcellular localization
CN(C)CCN1C(=O)c2cccc3c(N)ccc(c23)C1=O [A1, 6-amino-2-[2-(dimethylamino)ethyl]-1H-benz[de]isoquinoline-1,3(2H)-dione]	near identical to amonafide
C=CCNc1ccc2c3c(cccc13)C(=O)N(CCN(C)C)C2=O [A3, 6-allylamino-2-[2-(dimethylamino)ethyl]-1H-benz[de]isoquinoline-1,3(2H)-dione]	preferentially localizing to the nucleolus over the nucleoplasm
COCCNc1ccc2c3c(cccc13)C(=O)N(CCN(C)C)C2=O [A4, 6-methoxyethylamino-2-[2-(dimethylamino)ethyl]-1H-benz[de]isoquinoline-1,3(2H)-dione]	preferentially localizing to the nucleolus over the nucleoplasm; also recorded: near identical sub-cellular localization to amonafide
CN(C)CCN1C(=O)c2cccc3cc(N)cc(c23)C1=O [amonafide, reference compound]	preferentially localizing to the nucleolus over the nucleoplasm

Entries after “also recorded” stand apart in the source; their conditions may differ. Some entries repeat one wording, which the source may state once for all of them.
